# Results from the supplement of paper PMC3334620.
# Over roughly 33,000 sequences, “E-score (-0.5 to 0.5)” has its median near -0.015; the highest 2% begin near 0.3. This is one part of the list.
# Target: T1, Abf1 (UniProt P14164)
# T1 sequence: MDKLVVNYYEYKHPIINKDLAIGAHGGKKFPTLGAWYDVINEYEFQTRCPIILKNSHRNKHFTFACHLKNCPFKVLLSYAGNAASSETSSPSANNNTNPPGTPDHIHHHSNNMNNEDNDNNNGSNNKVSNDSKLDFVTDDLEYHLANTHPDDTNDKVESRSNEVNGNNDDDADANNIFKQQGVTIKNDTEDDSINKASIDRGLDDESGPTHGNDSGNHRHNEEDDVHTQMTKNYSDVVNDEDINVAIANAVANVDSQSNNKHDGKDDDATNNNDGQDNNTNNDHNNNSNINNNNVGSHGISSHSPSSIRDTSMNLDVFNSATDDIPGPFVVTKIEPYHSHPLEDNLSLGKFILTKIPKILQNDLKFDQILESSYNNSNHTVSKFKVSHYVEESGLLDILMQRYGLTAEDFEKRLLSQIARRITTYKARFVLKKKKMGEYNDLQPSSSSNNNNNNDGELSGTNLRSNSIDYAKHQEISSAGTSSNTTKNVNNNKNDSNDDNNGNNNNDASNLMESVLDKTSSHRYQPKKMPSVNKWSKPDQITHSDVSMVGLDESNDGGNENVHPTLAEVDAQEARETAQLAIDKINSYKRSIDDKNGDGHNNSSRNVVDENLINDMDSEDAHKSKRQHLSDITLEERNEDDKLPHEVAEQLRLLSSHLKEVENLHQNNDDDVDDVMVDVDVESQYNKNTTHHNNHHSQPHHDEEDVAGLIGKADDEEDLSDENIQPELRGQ
# Experiment: PBM E-score (8-mer binding enrichment) (E-score (-0.5 to 0.5)); higher = stronger / more preferred TF binding
# Conditions: protein concentration: 200 nM; construct: GST-full length
# Description: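 Universal 'all 10-mer' protein binding microarrays (Agilent AMADID 015681) probed with GST-tagged S. cerevisiae TFs (full-length or DBD) made by in vitro transcription/translation (PURExpress), about 100-200 nM. Bound TF was detected with fluorescent anti-GST. Each ungapped 8-mer (which stands for itself and its reverse complement) is scored by the PBM enrichment score (E-score), a modified Wilcoxon-Mann-Whitney statistic from -0.5 to +0.5, computed with the Universal PBM Analysis Suite. Scale: above 0.35 generally sequence-specific binding.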
row,Sequence,PBM E-score
1,CATACACA,-0.0659
2,AATTAAAA,0.00186
3,CGAATGGA,0.0823
4,TGTTTTAA,0.167
5,CCTCGGTC,-0.201
6,CATTAGAG,0.0163
7,CTTAGAAC,0.0471
8,AGACTCAA,-0.25
9,CTAAAACA,-0.052
10,AATGAATG,0.215
11,TACACTCA,0.0706
12,GGGGCGGA,-0.31
13,ATGTCGAA,0.00217
14,CATCCGGA,-0.148
15,ACCCACCA,-0.174
16,GCTCGTGA,0.0759
17,ACCACGAT,0.248
18,CTCTAGTA,0.00811
19,AATTCTTC,-0.00622
20,AGTAGTCC,0.0148
21,CATTCTGG,-0.0199
22,CTGAAGGA,-0.118
23,AAGTGGCG,-0.0322
24,CTCTAACA,0.0368
25,CGATATGC,0.214

row,Sequence,PBM E-score
1,CATTACAC,0.0501
2,GGTTCTAA,0.174
3,CAGTTTGG,-0.166
4,GCGTGAGC,-0.00153
5,GTCCACCA,-0.0958
6,CCTCTTTC,-0.314
7,CCCTTGAA,-0.102
8,ATCCACCG,0.168
9,ACCGCTAT,-0.167
10,TAAGGAGA,-0.199
11,CGTGGTAA,0.149
12,ATGTTTCG,0.0869
13,ATTTGTGC,-0.0752
14,CCACCTGG,-0.305
15,GCAATGCA,-0.101
16,AGAGCCTG,-0.203
17,AGTCAGAC,-0.0641
18,GAAAATGC,-0.00051
19,CCTATCAG,-0.22
20,CAGATACC,-0.026
21,AGCCGATC,-0.159
22,ATCAACGG,0.288
23,ACTGGTTG,-0.0643
24,GCCGGGCA,-0.283
25,AGAGATAG,0.037

row,Sequence,PBM E-score
1,ATACTTGA,-0.0426
2,GCCAGCGC,-0.278
3,AACCCCTA,-0.235
4,TCTAAGAA,0.155
5,ACAATTAC,0.13
6,AGACCGCG,-0.0334
7,ACTCGTAG,0.16
8,CAGACTGC,-0.188
9,GTGAATGA,0.15
10,AAGGTACG,0.105
11,ACTTTGGG,-0.11
12,AATACGAC,0.278
13,AACATTCA,-0.0877
14,GGCGGCCC,-0.231
15,CCATTAGG,-0.215
16,GTCGTTGA,0.327
17,CGAACGAG,0.112
18,CGAGAGAG,-0.124
19,CCGGATAC,-0.0452
20,AATACATC,-0.0864
21,GGCCATAA,-0.196
22,AGCGGCTC,-0.159
23,AATCTGGA,-0.14
24,ATACCCCA,0.0583
25,CTTTCTAA,0.0834

row,Sequence,PBM E-score
1,ACTTACTA,0.0901
2,CGACTCAG,-0.0467
3,AAATCCCT,-0.162
4,ACCCCACC,0.125
5,CAAGATCA,0.16
6,AGGATCAA,0.0888
7,ATAATCTG,-0.105
8,CCTATGAA,-0.165
9,GGATACAA,0.161
10,CAGCCCCA,-0.178
11,GCAAGGTA,-0.0878
12,CAAAGGCG,0.0207
13,ATTGTGAA,0.0833
14,AGACATTA,-0.0164
15,GAGTCTCA,-0.156
16,TGGGGACA,-0.172
17,CGGACCGA,-0.0781
18,CCTTAAAC,-0.0102
19,CATTATTA,0.247
20,ACCTCGAG,0.0887
21,CACCGCGG,0.043
22,ACCTCACA,-0.0895
23,CGTTGTCC,0.0331
24,ACACACCC,-0.00584
25,TGGATAAA,0.216

row,Sequence,PBM E-score
1,ACGTATCC,0.0297
2,CCCTGGAA,-0.181
3,AGCACGGA,0.157
4,TCACAAAA,-0.0313
5,CTTGTGTC,-0.0564
6,CCCGGGAC,-0.222
7,CTATGGCC,-0.139
8,TCCATAGA,-0.149
9,GTACACTA,0.0726
10,CCTGCCGA,-0.188
11,ATGCCAAG,-0.0925
12,CCAACTCG,-0.0747
13,ACGGGTTA,0.0231
14,CCCGAGGC,-0.0862
15,AGCTATCC,-0.246
16,TAGTGTGA,0.137
17,AGTCGCGA,0.208
18,AAGTTACA,-0.0815
19,CTACACGC,-0.0965
20,ACAAATGG,-0.0304
21,CTGTACTA,0.105
22,AGAAGACC,0.00869
23,CACATGGC,-0.18
24,GATTAAAA,0.17
25,CCGCGTGC,-0.0127

# 4 entries from above, as tab-separated lines.
row	Sequence	PBM E-score
11	ACTTTGGG	-0.11
12	AATACGAC	0.278
13	AACATTCA	-0.0877
14	GGCGGCCC	-0.231

# The results go on:

row,Sequence,PBM E-score
1,CATACCAC,0.0524
2,AGGTTCAT,-0.278
3,CGTAACTC,0.105
4,ATCAATCC,0.116
5,ACGAGGTA,0.154
6,AAATATTA,0.217
7,CCGTCGAA,0.201
8,ATAGTCCA,0.0269
9,AGCATCAG,-0.055
10,CCCCATAG,-0.13
11,GTGGACAC,-0.0874
12,CCGATTGC,0.0434
13,CATATTTC,0.11
14,CAACAATG,0.103
15,CGTTCCCA,0.0728
16,GCGCGAGC,-0.274
17,CCACCGAG,-0.127
18,CTTGAAAG,0.0291
19,CTATAGGC,-0.102
20,AGCTCAAG,-0.275
21,ACTTGTAT,-0.121
22,GGGCAACC,-0.245
23,ACACTATG,-0.0995
24,CCGCAAAC,0.134
25,TACCCAAA,-0.0749

row,Sequence,PBM E-score
1,GGGGTGAC,0.134
2,CTGAGTTC,-0.0373
3,CTCACTCC,-0.0715
4,CTAAGTCC,-0.154
5,GCACGCGA,0.0602
6,GAACCCGA,0.0767
7,CAGAACGC,-0.0801
8,AAAAGAAA,0.0689
9,GAATGAAC,-0.112
10,AGGTAACA,0.127
11,GCAATCCC,-0.0733
12,AAGCAGCG,0.0835
13,ACAGTCGA,-0.145
14,GCACTACC,0.0942
15,CTGTTCTC,-0.138
16,CGCGAACC,-0.0738
17,ATTCCTGC,-0.0386
18,CGACAAAG,0.0397
19,AAGTTTTC,0.029
20,GCAAACAC,0.00058
21,CAAATCTA,-0.00274
22,GAGTCTCC,-0.129

# Some of the entries so far, with bars between the fields:
row | Sequence | PBM E-score
3 | CTCACTCC | -0.0715
4 | CTAAGTCC | -0.154
11 | GCAATCCC | -0.0733
16 | CGCGAACC | -0.0738
20 | GCAAACAC | 0.00058
22 | GAGTCTCC | -0.129
